Reference: article PMC3779320, “Bub3 reads phosphorylated MELT repeats to promote spindle assembly checkpoint signaling” (eLife, 2013)
These are yes or no findings as the source states them, for the method shown. Sequences can lack the tags named with a protein.

Target: T1, ScBub1^289–359–Bub3 complex (S. cerevisiae) (UniProt P41695+P26449)
T1 sequence 1: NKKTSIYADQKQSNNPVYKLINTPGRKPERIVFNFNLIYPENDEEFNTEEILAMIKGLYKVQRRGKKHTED
T1 sequence 2: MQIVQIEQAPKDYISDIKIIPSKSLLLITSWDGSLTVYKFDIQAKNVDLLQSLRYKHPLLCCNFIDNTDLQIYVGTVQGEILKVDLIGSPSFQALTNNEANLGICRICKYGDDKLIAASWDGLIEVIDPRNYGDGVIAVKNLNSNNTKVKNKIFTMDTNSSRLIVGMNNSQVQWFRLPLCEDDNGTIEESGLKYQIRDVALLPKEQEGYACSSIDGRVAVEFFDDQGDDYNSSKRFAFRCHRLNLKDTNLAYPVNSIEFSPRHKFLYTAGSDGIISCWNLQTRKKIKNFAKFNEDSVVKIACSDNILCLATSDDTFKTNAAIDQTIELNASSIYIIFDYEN
Test: ITC; 25°C, MicroCal ITC200; 20 mM Tris pH7.5, 150 mM NaCl, 1 mM DTE; Bub1^289–359–Bub3 in the cell at 30 µM, titrated with thirty-five 2-µl injections of peptide at 400 µM; single-site binding model; both purified

binding: no binding
B1: Histone H1-derived phosphorylated peptide (peptide)
peptide: GGGPATPKKAKKL
modifications: phosphothreonine ({pTHR}) at the 6th residue of the peptide
